The supplement of paper PMC12819154, “High-throughput peptide-centric local stability assay extends protein–ligand identification to membrane proteins, tissues and bacteria” (Nature Structural & Molecular Biology, 2025)
The other results are listed elsewhere or left out. Most entries show no effect beyond the scatter of the controls.

Amino acid sequences for entries named in this document (tags omitted). A change or cut given only in a name is not applied to a line headed by its entry.
UniProt Q00325: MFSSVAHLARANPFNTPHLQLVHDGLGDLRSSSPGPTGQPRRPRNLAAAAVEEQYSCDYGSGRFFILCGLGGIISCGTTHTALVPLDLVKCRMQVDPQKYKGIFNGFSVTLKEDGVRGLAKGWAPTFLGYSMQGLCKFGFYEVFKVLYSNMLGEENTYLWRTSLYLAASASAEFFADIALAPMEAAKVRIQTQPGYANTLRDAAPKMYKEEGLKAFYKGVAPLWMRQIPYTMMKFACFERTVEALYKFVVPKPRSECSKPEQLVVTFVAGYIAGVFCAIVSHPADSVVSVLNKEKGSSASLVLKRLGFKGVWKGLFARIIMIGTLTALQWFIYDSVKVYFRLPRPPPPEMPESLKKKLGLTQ
UniProt Q01130: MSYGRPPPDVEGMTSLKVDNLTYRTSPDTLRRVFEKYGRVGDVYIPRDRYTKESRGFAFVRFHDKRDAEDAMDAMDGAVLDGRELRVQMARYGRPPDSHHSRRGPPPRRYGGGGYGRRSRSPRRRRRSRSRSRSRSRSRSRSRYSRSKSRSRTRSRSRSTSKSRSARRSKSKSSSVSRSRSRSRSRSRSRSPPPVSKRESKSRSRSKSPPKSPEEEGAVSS
UniProt P85299, whole entry: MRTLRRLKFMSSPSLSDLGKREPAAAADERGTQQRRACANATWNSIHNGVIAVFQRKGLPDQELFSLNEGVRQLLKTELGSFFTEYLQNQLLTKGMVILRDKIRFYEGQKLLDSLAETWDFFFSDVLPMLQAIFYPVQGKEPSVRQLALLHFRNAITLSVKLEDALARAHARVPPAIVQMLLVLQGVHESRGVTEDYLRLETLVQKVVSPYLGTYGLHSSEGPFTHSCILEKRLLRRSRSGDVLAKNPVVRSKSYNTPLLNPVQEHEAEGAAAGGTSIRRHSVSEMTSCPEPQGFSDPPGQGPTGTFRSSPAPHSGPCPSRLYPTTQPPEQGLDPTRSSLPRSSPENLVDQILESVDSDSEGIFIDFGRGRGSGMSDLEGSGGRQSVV
UniProt Q05193: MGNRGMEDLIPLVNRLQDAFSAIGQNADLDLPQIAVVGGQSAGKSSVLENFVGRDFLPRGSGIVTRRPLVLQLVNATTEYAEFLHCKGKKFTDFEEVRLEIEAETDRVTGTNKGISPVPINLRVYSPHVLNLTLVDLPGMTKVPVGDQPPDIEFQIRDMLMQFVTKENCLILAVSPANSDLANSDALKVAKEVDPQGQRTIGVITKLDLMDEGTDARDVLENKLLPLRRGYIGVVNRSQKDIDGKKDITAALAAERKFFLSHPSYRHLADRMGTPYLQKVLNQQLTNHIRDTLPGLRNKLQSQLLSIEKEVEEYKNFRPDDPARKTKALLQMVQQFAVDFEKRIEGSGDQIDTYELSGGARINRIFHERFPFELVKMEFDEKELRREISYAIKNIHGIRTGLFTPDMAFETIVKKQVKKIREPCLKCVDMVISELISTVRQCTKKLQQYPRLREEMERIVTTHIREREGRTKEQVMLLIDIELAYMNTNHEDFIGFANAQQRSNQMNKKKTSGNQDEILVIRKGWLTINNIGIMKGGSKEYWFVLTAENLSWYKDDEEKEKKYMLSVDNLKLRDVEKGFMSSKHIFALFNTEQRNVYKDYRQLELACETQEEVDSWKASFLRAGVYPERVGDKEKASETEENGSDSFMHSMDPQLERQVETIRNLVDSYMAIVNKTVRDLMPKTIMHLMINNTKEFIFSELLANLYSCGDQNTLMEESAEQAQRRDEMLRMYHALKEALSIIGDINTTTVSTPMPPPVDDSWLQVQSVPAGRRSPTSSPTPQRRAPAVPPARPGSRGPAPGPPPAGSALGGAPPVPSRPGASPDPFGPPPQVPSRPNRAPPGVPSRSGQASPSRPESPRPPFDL
UniProt Q0VD83: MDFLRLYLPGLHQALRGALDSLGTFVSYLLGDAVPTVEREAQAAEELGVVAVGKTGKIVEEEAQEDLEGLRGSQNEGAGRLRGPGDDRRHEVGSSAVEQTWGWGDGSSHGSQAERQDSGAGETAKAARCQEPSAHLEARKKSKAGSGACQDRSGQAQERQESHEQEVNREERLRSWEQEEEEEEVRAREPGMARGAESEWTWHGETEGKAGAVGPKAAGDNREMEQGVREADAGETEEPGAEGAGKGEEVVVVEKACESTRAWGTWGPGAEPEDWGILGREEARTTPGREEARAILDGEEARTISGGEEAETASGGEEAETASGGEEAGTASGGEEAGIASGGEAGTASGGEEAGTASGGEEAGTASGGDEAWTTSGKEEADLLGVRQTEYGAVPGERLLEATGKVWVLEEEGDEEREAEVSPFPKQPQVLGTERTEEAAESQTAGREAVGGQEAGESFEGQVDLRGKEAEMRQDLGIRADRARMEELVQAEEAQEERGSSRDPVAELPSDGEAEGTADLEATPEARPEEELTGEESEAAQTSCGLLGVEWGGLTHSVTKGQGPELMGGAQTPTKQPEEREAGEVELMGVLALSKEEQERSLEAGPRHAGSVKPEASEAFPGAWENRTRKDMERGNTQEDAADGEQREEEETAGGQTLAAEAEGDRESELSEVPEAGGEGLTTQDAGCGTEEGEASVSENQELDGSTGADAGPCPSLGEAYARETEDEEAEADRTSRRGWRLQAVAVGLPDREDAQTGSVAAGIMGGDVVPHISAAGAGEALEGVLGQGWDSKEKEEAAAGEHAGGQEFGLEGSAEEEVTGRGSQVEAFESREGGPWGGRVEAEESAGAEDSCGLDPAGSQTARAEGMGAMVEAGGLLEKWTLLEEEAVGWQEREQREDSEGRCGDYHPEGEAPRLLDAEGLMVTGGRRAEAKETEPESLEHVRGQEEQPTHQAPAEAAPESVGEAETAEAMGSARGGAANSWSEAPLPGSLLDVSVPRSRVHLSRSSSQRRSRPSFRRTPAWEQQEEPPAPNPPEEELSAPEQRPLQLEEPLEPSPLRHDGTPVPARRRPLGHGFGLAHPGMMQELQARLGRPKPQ
UniProt Q03060: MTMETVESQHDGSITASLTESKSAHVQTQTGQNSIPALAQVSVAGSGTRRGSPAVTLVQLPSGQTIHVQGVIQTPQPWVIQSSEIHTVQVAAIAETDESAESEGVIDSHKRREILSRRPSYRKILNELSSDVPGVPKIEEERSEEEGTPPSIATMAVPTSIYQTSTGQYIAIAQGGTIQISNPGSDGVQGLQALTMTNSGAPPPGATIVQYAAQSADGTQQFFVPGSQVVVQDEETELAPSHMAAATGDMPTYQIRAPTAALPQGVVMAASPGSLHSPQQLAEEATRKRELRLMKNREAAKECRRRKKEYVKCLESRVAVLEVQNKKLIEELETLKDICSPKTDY
UniProt Q00341: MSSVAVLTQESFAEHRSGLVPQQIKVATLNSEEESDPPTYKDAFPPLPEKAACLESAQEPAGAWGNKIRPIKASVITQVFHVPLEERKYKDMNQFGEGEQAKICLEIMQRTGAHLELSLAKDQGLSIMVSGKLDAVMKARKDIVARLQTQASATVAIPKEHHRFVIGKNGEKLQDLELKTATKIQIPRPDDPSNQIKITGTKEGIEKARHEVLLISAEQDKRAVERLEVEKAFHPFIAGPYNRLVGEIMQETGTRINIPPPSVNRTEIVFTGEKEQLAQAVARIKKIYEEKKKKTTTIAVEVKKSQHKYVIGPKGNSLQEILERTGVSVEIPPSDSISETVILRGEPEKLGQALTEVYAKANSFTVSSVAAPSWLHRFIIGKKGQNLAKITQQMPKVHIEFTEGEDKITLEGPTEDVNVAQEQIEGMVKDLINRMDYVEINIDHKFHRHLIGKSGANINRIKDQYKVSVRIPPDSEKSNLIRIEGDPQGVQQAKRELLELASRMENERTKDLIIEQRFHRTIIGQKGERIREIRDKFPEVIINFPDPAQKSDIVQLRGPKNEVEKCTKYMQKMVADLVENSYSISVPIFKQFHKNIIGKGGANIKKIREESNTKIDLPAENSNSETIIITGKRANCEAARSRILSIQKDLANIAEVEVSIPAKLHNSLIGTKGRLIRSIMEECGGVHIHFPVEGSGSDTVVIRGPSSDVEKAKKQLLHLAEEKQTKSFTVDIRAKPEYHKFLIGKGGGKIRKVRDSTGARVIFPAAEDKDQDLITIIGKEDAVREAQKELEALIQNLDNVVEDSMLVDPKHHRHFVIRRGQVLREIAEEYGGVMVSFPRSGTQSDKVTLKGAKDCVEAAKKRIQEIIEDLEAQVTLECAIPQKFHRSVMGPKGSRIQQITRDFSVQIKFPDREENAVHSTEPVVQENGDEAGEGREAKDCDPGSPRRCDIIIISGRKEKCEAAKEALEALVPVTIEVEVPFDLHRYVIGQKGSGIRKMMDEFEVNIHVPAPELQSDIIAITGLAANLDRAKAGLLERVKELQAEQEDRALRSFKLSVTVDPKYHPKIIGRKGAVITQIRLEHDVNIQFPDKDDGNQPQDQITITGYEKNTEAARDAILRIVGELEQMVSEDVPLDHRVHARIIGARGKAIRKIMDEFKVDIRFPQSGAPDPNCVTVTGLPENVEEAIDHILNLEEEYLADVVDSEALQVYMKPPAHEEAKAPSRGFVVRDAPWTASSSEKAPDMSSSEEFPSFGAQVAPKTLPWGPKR
UniProt Q12894: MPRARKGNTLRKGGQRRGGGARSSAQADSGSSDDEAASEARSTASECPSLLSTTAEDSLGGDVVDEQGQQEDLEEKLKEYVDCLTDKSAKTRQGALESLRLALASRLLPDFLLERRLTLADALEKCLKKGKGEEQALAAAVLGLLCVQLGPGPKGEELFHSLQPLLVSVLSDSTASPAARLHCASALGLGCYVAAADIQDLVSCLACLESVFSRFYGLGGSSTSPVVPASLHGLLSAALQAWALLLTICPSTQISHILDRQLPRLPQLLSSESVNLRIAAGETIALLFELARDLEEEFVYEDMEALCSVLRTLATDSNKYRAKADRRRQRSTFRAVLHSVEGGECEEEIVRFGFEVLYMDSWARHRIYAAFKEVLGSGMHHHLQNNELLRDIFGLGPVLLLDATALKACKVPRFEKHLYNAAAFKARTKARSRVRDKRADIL
UniProt Q01813: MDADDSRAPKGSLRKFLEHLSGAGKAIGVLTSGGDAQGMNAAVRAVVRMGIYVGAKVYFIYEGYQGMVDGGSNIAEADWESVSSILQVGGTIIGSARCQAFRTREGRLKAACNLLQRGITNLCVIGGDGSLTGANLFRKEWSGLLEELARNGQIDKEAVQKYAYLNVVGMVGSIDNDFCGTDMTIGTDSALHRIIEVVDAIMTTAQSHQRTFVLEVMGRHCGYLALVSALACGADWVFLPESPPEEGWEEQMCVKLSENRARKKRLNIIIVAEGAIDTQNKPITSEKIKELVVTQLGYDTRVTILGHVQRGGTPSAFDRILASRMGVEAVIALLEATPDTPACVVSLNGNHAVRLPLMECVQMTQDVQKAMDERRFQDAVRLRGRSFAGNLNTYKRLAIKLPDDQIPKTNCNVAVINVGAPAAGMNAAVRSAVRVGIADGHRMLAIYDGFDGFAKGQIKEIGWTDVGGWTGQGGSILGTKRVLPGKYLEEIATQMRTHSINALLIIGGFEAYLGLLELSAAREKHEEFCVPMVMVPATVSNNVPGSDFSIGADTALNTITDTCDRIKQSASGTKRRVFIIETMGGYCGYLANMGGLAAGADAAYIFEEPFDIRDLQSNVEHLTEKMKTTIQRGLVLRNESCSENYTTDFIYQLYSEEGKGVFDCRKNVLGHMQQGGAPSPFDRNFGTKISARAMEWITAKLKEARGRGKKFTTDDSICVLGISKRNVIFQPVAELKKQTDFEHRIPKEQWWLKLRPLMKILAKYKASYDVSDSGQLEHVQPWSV

Compound: Cc1nc(Nc2ncc(C(=O)Nc3c(C)cccc3Cl)s2)cc(N2CCN(CCO)CC2)n1 [dasatinib]
Assay: log2 fold change of tryptic peptide abundance, ligand vs vehicle (limited proteolysis) (log2 ratio); higher = more trypsin-susceptible (destabilized)
Settings: ligand concentration: 5 uM; sample: K562 cleared lysate

With “SLC25A3 (peptide sequence: GVAPLWMR, peptide start residue: 219) (UniProt Q00325)” as the target, how does the log2 fold change read?
The log2 fold change was 0.00236.

How did the log2 fold change turn out when “UniProt Q01130 (peptide sequence: TSPDTLRR, peptide start residue: 25)” was run?
The log2 fold change was 0.0687.

For “UniProt P85299 (peptide sequence: GSGMSDLEGSGGR, peptide start residue: 372)”, which log2 fold change is on record?
The log2 fold change was 0.433.

Which log2 fold change does the source give for “DNM1 (peptide sequence: KLQQYPR, peptide start residue: 445) (UniProt Q05193)” here?
The log2 fold change was 0.235.

How did the log2 fold change turn out when “UniProt Q0VD83 (peptide sequence: ETEDEEAEADR, peptide start residue: 724)” was run?
The log2 fold change was 0.781.

For “CREM (peptide sequence: KILNELSSDVPGVPK, peptide start residue: 123) (UniProt Q03060)”, which log2 fold change is on record?
Its log2 fold change is 0.11.

Which log2 fold change does the source give for “UniProt Q00341 (peptide sequence: ASVITQVFHVPLEER, peptide start residue: 73)” here?
The log2 fold change was -0.0818.

How did the log2 fold change turn out when “IFRD2 (peptide sequence: QGALESLR, peptide start residue: 157) (UniProt Q12894)” was run?
Its log2 fold change is -0.112.

“PFKP (peptide sequence: FLEHLSGAGK, peptide start residue: 16) (UniProt Q01813)” was tested. Which log2 fold change did it give?
Its log2 fold change is -0.218.
